Consider seven sequences from patent US6525189.

The chains behind the UniProt entries cited, without tags or fusion partners.
UniProt O14813, whole entry: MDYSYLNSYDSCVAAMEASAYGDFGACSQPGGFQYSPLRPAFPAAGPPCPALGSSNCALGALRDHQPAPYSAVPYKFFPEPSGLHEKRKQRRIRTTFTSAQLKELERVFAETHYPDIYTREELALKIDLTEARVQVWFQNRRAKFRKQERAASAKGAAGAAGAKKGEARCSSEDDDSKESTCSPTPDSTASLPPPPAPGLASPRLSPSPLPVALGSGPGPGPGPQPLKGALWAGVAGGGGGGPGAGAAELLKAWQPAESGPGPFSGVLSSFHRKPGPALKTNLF
UniProt O35690, whole entry: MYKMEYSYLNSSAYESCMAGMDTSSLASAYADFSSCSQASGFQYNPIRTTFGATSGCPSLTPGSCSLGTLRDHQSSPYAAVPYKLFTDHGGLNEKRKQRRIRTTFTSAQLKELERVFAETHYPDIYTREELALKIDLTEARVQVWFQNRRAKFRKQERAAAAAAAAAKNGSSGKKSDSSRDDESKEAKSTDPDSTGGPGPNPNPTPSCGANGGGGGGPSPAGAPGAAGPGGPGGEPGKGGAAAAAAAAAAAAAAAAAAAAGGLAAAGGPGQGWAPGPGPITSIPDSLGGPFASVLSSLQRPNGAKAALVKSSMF
UniProt Q62066, whole entry: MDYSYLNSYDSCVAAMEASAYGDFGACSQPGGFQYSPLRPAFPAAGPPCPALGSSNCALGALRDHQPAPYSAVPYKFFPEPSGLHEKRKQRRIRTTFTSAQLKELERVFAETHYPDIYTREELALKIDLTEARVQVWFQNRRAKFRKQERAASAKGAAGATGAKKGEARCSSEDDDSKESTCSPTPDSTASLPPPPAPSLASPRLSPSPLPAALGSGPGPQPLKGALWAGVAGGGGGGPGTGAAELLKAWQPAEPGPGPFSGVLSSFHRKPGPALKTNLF
UniProt Q62782, whole entry: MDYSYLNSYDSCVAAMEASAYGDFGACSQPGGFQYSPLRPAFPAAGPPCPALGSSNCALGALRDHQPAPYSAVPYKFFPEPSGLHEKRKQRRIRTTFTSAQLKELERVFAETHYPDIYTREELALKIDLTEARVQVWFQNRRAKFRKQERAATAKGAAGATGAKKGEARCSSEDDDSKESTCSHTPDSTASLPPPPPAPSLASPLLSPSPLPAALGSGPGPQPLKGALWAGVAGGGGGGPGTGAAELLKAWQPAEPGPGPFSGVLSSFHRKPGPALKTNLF

For part of these data: Where cells or extracts were used, other partners may take part. For part of these data: A negative result means that nothing was seen under these conditions.

The target in data set [1] is Phox2a (SK-N-BE(2)C nuclear extract) (Homo sapiens) (UniProt O14813). Briefly: EMSA. The note with it: protein in an extract, label: 32P. On the technique in general: Mobility shift assays separate free from complexed probe on a gel.
In another data set the target is Phox2b (UniProt O35690). In words: activity in cells. The note with it: 1xII-CAT in HeLa and C6; 4xII-CAT 200-300 fold; protein in cells; protein details: expressed from pRC/Phox2b (CMV promoter); only the site is given.
The target in data set [2] is Phox2a (CATH.a nuclear extract) (Mus musculus) (UniProt Q62066). Briefly: EMSA. The note with it: supershift with Phox2a antibody; protein in an extract; label: 32P.
Data set [3] addresses Phox2a (PC12 nuclear extract) (Rattus norvegicus) (UniProt Q62782). In words: EMSA. As to conditions: supershift with Phox2a antibody; protein in an extract; label: 32P.
In data set [4] the target is Phox2a (SK-N-BE(2)C nuclear extract) (Homo sapiens) (UniProt O14813). Briefly: footprint. As to conditions: Phox2a site revealed by DNase I footprinting; protein source not stated; reporter activity 2.4 in BE cells (Table 2); protein in an extract.
[5] abbreviates: complex comparable to wild type, robust supershift, variant of Domain II (DII).

For the sequence “CCGCTAGACAAACTTGATTACC (double strand) [Domain II m3]”, the binding result in data set [1] (complex without antibody reduced but supershift comparable to wild type, variant of Domain II (DII)) is reported as “binds”.
For “CCGCTAGACAAATGTGATGCCC (double strand) [Domain II m4]”, the binding result in data set [1] (most severe defect, no robust supershifted band, variant of Domain II (DII)) was “no binding”.
For “CCGCTAGACAAATGTGATTACC (double strand) [Domain II (DII)]”, in the data set with Phox2b, the “activity on this sequence” value is “active”. Also, the binding result in data set [2] and in data set [3] was “binds” each time.
In the case of “CCGCTAGCTAAATGTGATTACC (double strand) [Domain II m2]”, the binding result in data set [1] (setting [5]) was “binds”.
With “CCTATAGACAAATGTGATTACC (double strand) [Domain II m1]”, in data set [1] (setting [5]), the binding result is listed as “binds”.
Turning to “GAGGGAAAATTGGATTCCCCG (double strand) [PBD3 wild type (-105 to -85)]”, in data set [4], the binding result is on record as “binds”.
Consider “GTGTCATTAGTGCCAATTAGAG (double strand) [PRS1 (HD site of domain IV)]”, for which the binding result in data set [1] (dose-dependent supershift, cold PRS1 competes DII complexes more efficiently than cold DII) was “binds”.
